Assay results: the supplement of paper PMC11006884
The list shows a part of the results, in another mix than the full data.

Compound: COC(=O)C#Cc1ccccc1 [methyl 3-phenylpropiolate]
Assay: log2 ratio of iodoacetamide-alkyne labeling of the cysteine site, DMSO over compound (competition); higher = stronger covalent engagement of the cysteine by the compound, active = 1 or more
Conditions: 500 µM; treatment time 1 h; system: HEK293T cell lysate
In short: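 Electrophile (500 µM) or vehicle was added to HEK293T lysate (2 mg/mL) for 1 h at ambient temperature before iodoacetamide alkyne labelling (1 h) and click coupling to sCIP-TMT reagents. After pooling, overnight trypsin digestion at 37 °C, streptavidin enrichment and acid elution, peptides were measured by Orbitrap Eclipse LC-MS/MS with FAIMS and quantified in FragPipe. Each cysteine's log2 competition ratio compares mean control-channel with mean compound-channel reporter intensity, control over compound. Data came from duplicate channels across three replicates, excluding cysteines quantified in only one replicate.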

Row | Target | log2 ratio of iodoacetamide-alkyne labeling
1 | RPL4 C96 (UniProt P36578) | active: 1.24
2 | NUP214 C728 (UniProt P35658) | inactive: 0.497
3 | STIP1 C339 (UniProt P31948) | inactive: 0.0728
4 | GPX4 C93 (UniProt P36969) | inactive: 0.0252
5 | UniProt P35568_C494 | inactive: 0.123
6 | PEBP1 C168 (UniProt P30086) | inactive: 0.0634
7 | TIA1 C33 (UniProt P31483) | inactive: 0.0436
8 | CTNNA1 C324 (UniProt P35221) | inactive: 0.0149
9 | EIF2S3 C269 (UniProt P41091) | inactive: 0.221
10 | HSPA4 C310 (UniProt P34932) | inactive: 0.0466
11 | CCT6A C406 (UniProt P40227) | inactive: 0.00195
12 | WNT5A C182 (UniProt P41221) | inactive: 0.308
13 | HMGCL C323 (UniProt P35914) | inactive: 0.229
14 | DNAJA1 C149 (UniProt P31689) | inactive: 0.14
15 | ALDH1B1 C169 (UniProt P30837) | inactive: 0.454
16 | UniProt P41743_C595 | inactive: 0.16
17 | UniProt P36507_C384 | inactive: 0.261
18 | RPL4 C3 (UniProt P36578) | inactive: 0.647
19 | PPP2R1A C294 (UniProt P30153) | inactive: 0.323

Reformatted as a markdown table: entries from further up

| Row | Target | log2 ratio of iodoacetamide-alkyne labeling |
| --- | --- | --- |
| 4 | GPX4 C93 (UniProt P36969) | inactive: 0.0252 |
| 5 | UniProt P35568_C494 | inactive: 0.123 |
| 6 | PEBP1 C168 (UniProt P30086) | inactive: 0.0634 |
| 7 | TIA1 C33 (UniProt P31483) | inactive: 0.0436 |
| 8 | CTNNA1 C324 (UniProt P35221) | inactive: 0.0149 |
| 9 | EIF2S3 C269 (UniProt P41091) | inactive: 0.221 |
| 10 | HSPA4 C310 (UniProt P34932) | inactive: 0.0466 |
| 11 | CCT6A C406 (UniProt P40227) | inactive: 0.00195 |

Next part:

Row | Target | log2 ratio of iodoacetamide-alkyne labeling
20 | SRI C162 (UniProt P30626) | inactive: 0.0722
21 | DCTD C60 (UniProt P32321) | inactive: 0.37
22 | HSPA4 C417 (UniProt P34932) | inactive: 0.208
23 | MPI C289 (UniProt P34949) | inactive: -0.0268
24 | PDIA3 C406 (UniProt P30101) | inactive: 0.687
25 | MATR3 C230 (UniProt P43243) | inactive: 0.346
26 | HADHA C322 (UniProt P40939) | inactive: 0.32
27 | NUP62 C475 (UniProt P37198) | inactive: 0.206
28 | ADD1 C68 (UniProt P35611) | inactive: 0.368
29 | ACAA2 C128 (UniProt P42765) | active: 1.22
30 | POLR2B C984 (UniProt P30876) | inactive: 0.013
31 | RPL13A C38 (UniProt P40429) | inactive: -0.0858
32 | SHMT1 C110 (UniProt P34896) | inactive: 0.28
33 | MCM5 C207 (UniProt P33992) | inactive: 0.811
34 | NUP62 C506 (UniProt P37198) | inactive: 0.292
35 | UniProt P42126_C173 | inactive: 0.0263
36 | TMPO C629 (UniProt P42166) | inactive: -0.0337
37 | HNRNPH1 C122 (UniProt P31943) | inactive: -0.00137
